From publication doi:10.1101/2020.12.01.407320
No constants are given. Whether binding was seen depends on the method and setting. Binding seen in cells or lysates may run through a third protein. Some binding calls cover weakened binding; strength is not graded here.

Sequences of proteins named here, by UniProt entry; tags and fusion partners are left off. A change or cut given only in a name is not applied to a line headed by its entry. A line that says so, or that is headed by a name, gives the form on record, which may keep a tag or linker.
GFP tagged RTN3 (human (cDNA from HEK293T)) (O95197, form named): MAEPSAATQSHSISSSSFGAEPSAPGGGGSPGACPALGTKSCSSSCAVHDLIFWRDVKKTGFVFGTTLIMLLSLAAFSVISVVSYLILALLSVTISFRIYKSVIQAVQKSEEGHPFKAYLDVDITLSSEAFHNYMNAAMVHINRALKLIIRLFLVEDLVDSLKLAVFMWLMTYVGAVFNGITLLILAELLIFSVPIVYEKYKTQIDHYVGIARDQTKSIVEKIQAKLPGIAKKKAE
UniProt Q14258: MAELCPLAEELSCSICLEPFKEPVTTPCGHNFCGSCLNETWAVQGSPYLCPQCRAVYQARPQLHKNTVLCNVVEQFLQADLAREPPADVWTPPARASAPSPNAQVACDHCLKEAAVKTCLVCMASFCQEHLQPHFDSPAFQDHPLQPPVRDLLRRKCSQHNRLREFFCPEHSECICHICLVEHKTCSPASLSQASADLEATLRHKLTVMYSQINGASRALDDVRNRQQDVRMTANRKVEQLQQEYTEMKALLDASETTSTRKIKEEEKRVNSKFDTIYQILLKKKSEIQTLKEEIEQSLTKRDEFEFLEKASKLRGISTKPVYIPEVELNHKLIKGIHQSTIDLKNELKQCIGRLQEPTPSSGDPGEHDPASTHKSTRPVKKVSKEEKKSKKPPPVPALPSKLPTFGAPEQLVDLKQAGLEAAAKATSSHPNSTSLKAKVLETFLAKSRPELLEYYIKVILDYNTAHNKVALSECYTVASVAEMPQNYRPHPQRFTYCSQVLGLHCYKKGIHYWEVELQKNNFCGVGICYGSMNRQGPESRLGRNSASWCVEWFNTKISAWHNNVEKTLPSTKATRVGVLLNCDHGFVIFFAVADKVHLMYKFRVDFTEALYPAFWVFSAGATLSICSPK

Target: GFP tagged RTN3 (human (cDNA from HEK293T)) (UniProt O95197)
Experiment: co-IP

**Q.** With “Flag-tagged TRIM25 (from UniProt Q14258 1-630)” as the substance, how does the binding read?
**A.** binds
